No constants are given. Whether binding was seen depends on the method and setting. Some entries that bind do so weakly or less than the wild type.
Biological target: T1, recombinant human IL-22 (human) (UniProt Q9GZX6)
T1 sequence (looked up): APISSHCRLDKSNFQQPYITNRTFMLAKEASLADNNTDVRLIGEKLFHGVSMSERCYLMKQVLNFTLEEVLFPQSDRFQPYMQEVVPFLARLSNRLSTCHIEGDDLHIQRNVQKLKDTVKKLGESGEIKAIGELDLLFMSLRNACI
Assay: ELISA: plates coated with recombinant human IL-22, IL-22BP-Ig (10% supernatant) detected with anti-mouse IgG3 peroxidase

B1: IL-22BP-Ig (Fc fusion, UniProt Q969J5-2 22-231, looked up, not shown: a dimerising Fc or GST)
chain: TQSTHESLKPQRVQFQSRNFHNILQWQPGRALTGNSSVYFVQYKIYGQRQWKNKEDCWGTQELSCDLTSETSDIQEPYYGRVRAASAGSYSEWSMTPRFTPWWETKIDPPVMNITQVNGSLLVILHAPNLPYRYQKEKNVSIEDYYELLYRVFIINNSLEKEQKVYEGAHRAVEIEALTPHSSYCVVAEIYQPMLDRRSQRSEERCVEIP
- binding: binds

Source: patent publication US20040236075A1
